Source: PMC5520747
No constants are given. Whether binding was seen depends on the method and setting. In cells and extracts the contact can be indirect. Some entries that bind do so weakly or less than the wild type. Each block holds one substance with its values, some of them ahead of it.

Chains of the proteins cited; added tags and fusions are not shown. Lines headed by an entry give the natural chain unless they say otherwise; changes in a name come on top. A line that says so, or that is headed by a name, gives the form on record, which may keep a tag or linker.
UniProt Q03135: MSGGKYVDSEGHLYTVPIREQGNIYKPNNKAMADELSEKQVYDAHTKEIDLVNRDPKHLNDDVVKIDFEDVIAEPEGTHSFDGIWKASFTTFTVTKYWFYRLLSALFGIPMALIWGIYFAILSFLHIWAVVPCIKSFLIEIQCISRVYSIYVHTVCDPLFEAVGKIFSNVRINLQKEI
CAV1ΔSD-HA (Q03135, form named): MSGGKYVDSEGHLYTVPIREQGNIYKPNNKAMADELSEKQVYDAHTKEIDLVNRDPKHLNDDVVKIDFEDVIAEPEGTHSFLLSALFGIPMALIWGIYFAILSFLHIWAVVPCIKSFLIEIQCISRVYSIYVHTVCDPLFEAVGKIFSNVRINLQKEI
CAV1ΔIM-HA (Q03135, form named): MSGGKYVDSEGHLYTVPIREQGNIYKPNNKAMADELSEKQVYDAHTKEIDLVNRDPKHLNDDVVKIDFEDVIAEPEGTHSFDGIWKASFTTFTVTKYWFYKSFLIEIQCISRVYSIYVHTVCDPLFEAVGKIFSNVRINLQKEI
UniProt Q14457: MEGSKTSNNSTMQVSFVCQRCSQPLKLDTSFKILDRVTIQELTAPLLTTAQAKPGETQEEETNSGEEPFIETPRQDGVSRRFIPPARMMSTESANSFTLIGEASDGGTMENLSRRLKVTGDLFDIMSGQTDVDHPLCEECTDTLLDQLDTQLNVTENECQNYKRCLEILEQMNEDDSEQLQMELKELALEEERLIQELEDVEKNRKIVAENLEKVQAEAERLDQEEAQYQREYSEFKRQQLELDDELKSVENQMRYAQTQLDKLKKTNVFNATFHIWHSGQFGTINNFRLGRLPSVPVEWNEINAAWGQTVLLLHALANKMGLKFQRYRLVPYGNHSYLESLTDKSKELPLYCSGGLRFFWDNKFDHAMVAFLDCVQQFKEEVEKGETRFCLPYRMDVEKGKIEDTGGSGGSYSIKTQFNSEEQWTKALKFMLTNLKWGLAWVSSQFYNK
UniProt Q6ZNE5: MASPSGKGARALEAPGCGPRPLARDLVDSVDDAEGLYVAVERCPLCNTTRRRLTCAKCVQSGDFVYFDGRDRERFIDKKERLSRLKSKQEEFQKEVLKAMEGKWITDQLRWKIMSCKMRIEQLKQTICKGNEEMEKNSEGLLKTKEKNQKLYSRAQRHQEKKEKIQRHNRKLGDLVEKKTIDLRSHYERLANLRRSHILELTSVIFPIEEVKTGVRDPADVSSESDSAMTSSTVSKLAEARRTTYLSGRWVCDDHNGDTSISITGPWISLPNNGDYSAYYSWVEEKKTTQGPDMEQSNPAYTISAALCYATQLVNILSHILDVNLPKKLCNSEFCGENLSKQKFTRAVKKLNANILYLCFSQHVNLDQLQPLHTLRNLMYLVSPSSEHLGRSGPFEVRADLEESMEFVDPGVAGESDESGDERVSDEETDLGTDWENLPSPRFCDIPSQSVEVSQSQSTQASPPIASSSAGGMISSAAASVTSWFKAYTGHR

How the values were obtained:
[1] = target: HA-tagged CAV1 (Caveolin1), full length (UniProt Q03135); assay: co-IP; HEK293T transfected 24 h; IP with anti-HA antibody (CAV1-HA variant as bait), western blot; lysis in modified RIPA (10 mM Tris-HCl, 150 mM NaCl, 5 mM EDTA, 1 mM Na3VO4, 1% CHAPS); cells untreated or treated with 1 mM H2O2 up to 30 min
[2] = target: BECN1-flag, full length (UniProt Q14457); assay: co-IP; HEK293T co-transfected 24 h; IP with anti-Flag antibody (BECN1-flag as bait), western blot; lysis in modified RIPA
[3] = target: CAV1-Y14D-HA (UniProt Q03135); assay: co-IP; HEK293T transfected 24 h; IP with anti-HA antibody (CAV1-HA variant as bait), western blot; lysis in modified RIPA (10 mM Tris-HCl, 150 mM NaCl, 5 mM EDTA, 1 mM Na3VO4, 1% CHAPS); cells untreated or treated with 1 mM H2O2 up to 30 min
[4] = target: HA-tagged CAV1 (Caveolin1), full length (UniProt Q03135); assay: co-IP; IP assay of CAV1-HA with ATG14-flag or UVRAG-flag (Supplementary Figure S3a and b); cells and precipitating antibody not shown

Substance: CAV1ΔSD-HA (from UniProt Q03135 1-178)
binding [2]: no binding

Substance: BECN1-flag, full length (from UniProt Q14457 1-450)
binding [1]: binds

Substance: BECN1 (in HEK293T lysate, Figure 5c) (from UniProt Q14457 1-450)
binding [3]: binds

Substance: ATG14-flag (from UniProt Q6ZNE5 1-492)
binding [4]: binds

Next, values leading:

binding [1]: binds
Substance: BECN1 (transfected, Figure 3a; no tag named) (from UniProt Q14457 1-450)

binding [2]: binds
Substance: CAV1ΔIM-HA (from UniProt Q03135 1-178)

binding [2]: binds
Substance: HA-tagged CAV1 (Caveolin1), full length (from UniProt Q03135 1-178)
